Measured values as given in PMC10119177 (2023).
No constants are given. Whether binding was seen depends on the method and setting. Tags and fused reporters may be left off the sequences shown.

Molecular target: IgI3 domain of R28 (R28-IgI3), wildtype (Streptococcus pyogenes)
Test: flow cytometry of protein-coated Dynabeads; C-terminal biotin tagged R28-IgI3 on streptavidin Dynabeads (3 x 10^5); incubated with rCEACAM at 10 μg/ml; washed in PBS + 0.5% BSA; detected with FITC anti-HIS IgG; both purified

B1: mouse rCEACAM1-HIS (receptor, UniProt P31809 35-428)
chain: EVTIEAVPPQVAEDNNVLLLVHNLPLALGAFAWYKGNTTAIDKEIARFVPNSNMNFTGQAYSGREIIYSNGSLLFQMITMKDMGVYTLDMTDENYRRTQATVRFHVHPILLKPNITSNNSNPVEGDDSVSLTCDSYTDPDNINYLWSRNGESLSEGDRLKLSEGNRTLTLLNVTRNDTGPYVCETRNPVSVNRSDPFSLNIIYGPDTPIISPSDIYLHPGSNLNLSCHAASNPPAQYFWLINEKPHASSQELFIPNITTNNSGTYTCFVNNSVTGLSRTTVKNITVLEPVTQPFLQVTNTTVKELDSVTLTCLSNDIGANIQWLFNSQSLQLTERMTLSQNNSILRIDPIKREDAGEYQCEISNPVSVRRSNSIKLDIIFDPTQGGLSDGAIAG
For B1, the binding was “no binding”.
